We go through 1 substance from paper PMC7650749.

Sequences of proteins named here, by UniProt entry; tags and fusion partners are left off.
UniProt P63159: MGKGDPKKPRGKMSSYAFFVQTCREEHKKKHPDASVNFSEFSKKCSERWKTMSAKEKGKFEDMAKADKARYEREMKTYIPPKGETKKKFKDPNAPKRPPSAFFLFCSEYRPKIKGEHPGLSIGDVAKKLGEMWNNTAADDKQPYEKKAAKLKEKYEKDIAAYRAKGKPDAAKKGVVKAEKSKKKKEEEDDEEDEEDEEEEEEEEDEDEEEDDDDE

The assay has as its target T1, sirtuin 1 (Sirt-1) (rat (endogenous in NRK-52E)).
T1 sequence: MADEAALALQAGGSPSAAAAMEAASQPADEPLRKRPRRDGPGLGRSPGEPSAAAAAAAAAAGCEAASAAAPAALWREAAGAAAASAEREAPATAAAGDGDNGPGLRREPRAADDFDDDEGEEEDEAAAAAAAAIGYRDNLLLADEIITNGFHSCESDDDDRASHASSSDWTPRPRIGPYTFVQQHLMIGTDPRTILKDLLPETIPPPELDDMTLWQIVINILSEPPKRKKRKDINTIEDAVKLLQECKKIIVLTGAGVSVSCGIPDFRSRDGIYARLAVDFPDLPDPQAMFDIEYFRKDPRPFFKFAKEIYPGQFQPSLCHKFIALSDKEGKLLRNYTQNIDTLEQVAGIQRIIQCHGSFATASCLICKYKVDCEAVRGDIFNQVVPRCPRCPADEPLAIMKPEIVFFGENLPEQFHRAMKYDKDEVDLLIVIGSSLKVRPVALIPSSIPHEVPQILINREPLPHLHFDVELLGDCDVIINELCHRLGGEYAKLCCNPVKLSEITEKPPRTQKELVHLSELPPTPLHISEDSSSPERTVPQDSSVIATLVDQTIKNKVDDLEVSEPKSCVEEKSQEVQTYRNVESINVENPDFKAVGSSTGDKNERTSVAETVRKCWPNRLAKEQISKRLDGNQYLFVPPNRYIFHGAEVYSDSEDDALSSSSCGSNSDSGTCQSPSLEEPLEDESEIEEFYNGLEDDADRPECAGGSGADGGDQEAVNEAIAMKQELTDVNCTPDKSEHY
The assay can be described thus: co-IP; anti-Sirt-1 or anti-HMGB1 antibody, 24 h at 4 °C, protein A magnetic beads, Western blot; endogenous proteins in the nucleus of NRK-52E cells; cells untreated or treated with AGE (100 μg/mL), fucoidan (100 μg/mL), EX527 (200 nM).

These are yes or no findings as the source states them, for the method shown. In cells and extracts the contact can be indirect. Some binding calls cover weakened binding; strength is not graded here.

“high mobility group box 1 (HMGB1) (from UniProt P63159 1-215)”: the binding entry is on record as “binds”.
